Reference: publication PMC12160916
Results are given in words; binding and its absence hold for the method and conditions named. Binding seen in cells or lysates may run through a third protein. Some entries that bind do so weakly or less than the wild type.

Amino acid sequences for entries named in this document (tags omitted).
UniProt Q9HAU4: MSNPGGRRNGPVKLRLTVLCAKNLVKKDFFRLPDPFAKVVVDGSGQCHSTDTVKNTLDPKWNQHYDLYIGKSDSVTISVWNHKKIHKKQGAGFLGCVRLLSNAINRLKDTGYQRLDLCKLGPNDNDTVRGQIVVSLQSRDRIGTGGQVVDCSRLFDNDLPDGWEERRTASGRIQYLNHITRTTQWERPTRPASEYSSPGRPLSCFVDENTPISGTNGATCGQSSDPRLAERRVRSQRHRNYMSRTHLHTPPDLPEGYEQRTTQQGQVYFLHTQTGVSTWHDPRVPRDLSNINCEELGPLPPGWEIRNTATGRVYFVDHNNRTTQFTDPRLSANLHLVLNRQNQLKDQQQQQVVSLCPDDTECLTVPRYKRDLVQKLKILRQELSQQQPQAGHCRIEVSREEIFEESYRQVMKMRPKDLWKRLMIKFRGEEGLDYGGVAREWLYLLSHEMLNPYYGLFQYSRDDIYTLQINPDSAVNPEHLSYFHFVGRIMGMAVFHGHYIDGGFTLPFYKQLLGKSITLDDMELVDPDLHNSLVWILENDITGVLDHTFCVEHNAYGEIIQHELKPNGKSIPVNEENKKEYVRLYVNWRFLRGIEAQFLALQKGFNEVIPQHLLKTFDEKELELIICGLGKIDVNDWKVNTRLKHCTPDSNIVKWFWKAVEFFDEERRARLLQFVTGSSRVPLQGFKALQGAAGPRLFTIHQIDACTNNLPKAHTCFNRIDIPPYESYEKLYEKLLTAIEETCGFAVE
UniProt P67809: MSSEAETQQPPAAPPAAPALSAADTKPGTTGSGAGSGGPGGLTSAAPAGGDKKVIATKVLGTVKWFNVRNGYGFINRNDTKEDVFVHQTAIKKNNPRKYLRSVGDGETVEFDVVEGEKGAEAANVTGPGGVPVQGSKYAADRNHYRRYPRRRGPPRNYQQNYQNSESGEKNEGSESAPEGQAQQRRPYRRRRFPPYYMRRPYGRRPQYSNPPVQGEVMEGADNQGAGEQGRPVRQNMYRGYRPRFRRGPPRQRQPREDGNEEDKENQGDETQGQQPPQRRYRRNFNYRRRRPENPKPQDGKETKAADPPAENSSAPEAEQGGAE

Molecular target: Smad-specific E3 ubiquitin ligase 2 (SMURF2) (human (endogenous in MDA-MB-231 and MCF-7)) (UniProt Q9HAU4)
Assay: co-IP; MDA-MB-231 and MCF-7 cells lysed in NP-40 lysis buffer; 1 mg lysate with 2 ug YBX1 antibody or 2 ug SMURF2 antibody overnight at 4°C, Protein A/G beads 6 h at 4°C, six washes, blotting; IgG control; also in control and MNX1-AS1-silenced cells (interaction enhanced by silencing)

Y-box binding protein 1 (YBX1) (from UniProt P67809 1-324)
binding: binds
